Measurements reported in paper PMC4490564, “Molecular snapshots of the Pex1/6 AAA+ complex in action” (Nature Communications, 2015).

T1: Pex1 (wild type, overexpressed in yeast) (yeast) (UniProt P24004)
T1 sequence: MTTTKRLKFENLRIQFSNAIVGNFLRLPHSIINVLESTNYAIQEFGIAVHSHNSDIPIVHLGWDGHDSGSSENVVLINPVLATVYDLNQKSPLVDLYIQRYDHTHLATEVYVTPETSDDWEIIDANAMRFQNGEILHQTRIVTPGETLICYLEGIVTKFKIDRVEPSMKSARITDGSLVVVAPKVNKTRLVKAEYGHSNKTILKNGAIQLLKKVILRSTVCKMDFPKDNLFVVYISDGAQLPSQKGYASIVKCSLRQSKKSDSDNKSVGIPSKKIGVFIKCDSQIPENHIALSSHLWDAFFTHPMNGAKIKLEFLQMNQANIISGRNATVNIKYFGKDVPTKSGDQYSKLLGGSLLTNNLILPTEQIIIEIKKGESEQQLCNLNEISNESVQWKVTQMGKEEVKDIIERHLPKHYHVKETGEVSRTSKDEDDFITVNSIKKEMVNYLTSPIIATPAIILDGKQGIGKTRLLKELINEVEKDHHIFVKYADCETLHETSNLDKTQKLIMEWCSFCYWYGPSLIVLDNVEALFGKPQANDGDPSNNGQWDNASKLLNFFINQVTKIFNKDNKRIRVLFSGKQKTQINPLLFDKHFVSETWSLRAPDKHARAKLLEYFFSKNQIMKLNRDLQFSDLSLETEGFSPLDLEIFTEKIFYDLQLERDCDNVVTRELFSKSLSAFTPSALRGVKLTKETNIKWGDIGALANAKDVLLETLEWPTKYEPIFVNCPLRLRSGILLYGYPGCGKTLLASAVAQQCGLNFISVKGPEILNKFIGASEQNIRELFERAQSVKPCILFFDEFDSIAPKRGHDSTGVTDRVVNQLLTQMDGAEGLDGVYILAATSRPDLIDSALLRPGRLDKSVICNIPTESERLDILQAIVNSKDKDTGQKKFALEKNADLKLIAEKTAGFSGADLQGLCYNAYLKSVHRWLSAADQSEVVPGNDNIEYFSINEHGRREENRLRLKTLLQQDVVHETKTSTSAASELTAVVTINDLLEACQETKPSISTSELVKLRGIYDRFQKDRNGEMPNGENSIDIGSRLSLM


What was measured:
Assay in all cases: negative stain EM (single-particle analysis, 3D reconstruction); purified complexes at 40-50 ug/ml, incubated with ATPγS (2.5 mM), ATP (5 mM), ADP (5 mM) or ADP-AlFx, adsorbed on carbon grids, stained with 2% uranyl acetate; threefold symmetry imposed; both purified
[1] = target: Pex1 with a Walker B mutation in the D2 domain (yeast) (UniProt P24004)
[2] = target: T1, Pex1 (wild type, overexpressed in yeast) (yeast)
[3] = target: Pex1 with a Walker B mutation in the D2 domain (yeast) (UniProt P24004); remark: listed apart in the source

binding [1] | binding [2] | binding [3] | Molecule
binds | binds | – | Pex6 with a Walker B mutation in the D2 domain (from UniProt P33760)
– | – | binds | Pex6 (wild type, HisPex6) (natural protein, yeast, UniProt P33760 1-1030, looked up, Pex6, yeast, type II AAA+ ATPase; PEX6 amplified from genomic DNA; also called Pex6 of Pex1/6) MKASLTFSLSGIYAPCSISRDIYLEYGDKKAECLYGTIRLPQYGPGCTPGKIVHCVLDDSLPFCSIVVPSKLFGFMPTQPTMDFCYFEPILDNVVPVLDSVTFLINEQLYSKLMDLPQEMQQIQFLHYKYNINSMETVVHSRDILTSGLCQILNCSPFPQGLVDFTETQLILVNDTEQKLSALKYANEDEEYALPKIGTNSALSIDLESLPCTISRDLLRPAPHINDDNSIYAFTDAETLLRLDVTSGSFITVSNMGCVRLVKLFVLLLPNGFKKRTIYAPPKIIASFPDCSVVTISKSNIGHTDIPIANQVFISRVGGWLQSQKCFQNIILTTLKKFFSESKRILCQNDLIPIAFDSSMADLNIAEENDESDDEDELGQYYKNDSLVWFFVTSAELDCFSKDNSHFIIDPNRTKLITTNITNRRPLPLSRSNLQRYYGFAETFYYDLHIFPYVRQLVNILETSFNCSQRGITLNASVLLHSTTNNVGKATMVRFASKYLGIHLLEIDCLSLTSNSRQLDSTSKIIGYIRAKCENVLPYASPAVIFLAHLDSILLDVNANQDPEAIKLQKSINFEMSKLLDDFTFKFPGTTFVGSVNNIDNVPSSFRSHMRFEILVPVPSEAQRLRIFQWYLSSHELNRDVQQKVPVSYMDNISFSSLSSYSAGLTPLDIKSIVETARMTATARFYQESKKCGWLPQSILITQEDLSKATSKARNEFSVSIGAPQIPNVTWDDIGGIDFVKGEILDTIDMPLKHPELFTSGMKKRSGILFYGPPGTGKTLMAKAIATNFSLNFFSVKGPELLNMYIGESEANVRRVFQKAREAKPCVIFFDEIDSVAPKRGNQGDSGGVMDRIVSQLLAELDGMSTDADGVFVIGATNRPDLLDEALLRPGRFDKLLYLGIPDTDTKQLNILEALTRKFVLDNDVKLIELAKLCPFNYTGADFYALCSDAMLNAMSRIARMVEKKVSQHNELTGENISTRRWFDKIATKEDTKVVVKMEDFLKAQEQLTPSVSRAELNHYEAVRANFEGA

Read-outs that look alike come from different tables or passages of the source. These are yes or no findings as the source states them, for the method shown. Binding calls can cover weak binding; strength is not graded here.
